Data on 75 substances can be found in the supplement of paper PMC5949888.

Most values lie at the floor of the assay. Slopes are relative: functional sequences can read slightly below zero.

The data set relates to Saccharomyces cerevisiae PS128 hsf1 delta, HSF1(1-493) fusion. Description: growth estimate (transactivation domain function in HSF1 fusion, heat-shock survival) (a.u. (slope of normalised read count over time)); higher = stronger growth at 37°C, i.e. more transactivation activity. To be noted: library: random library. The method, then: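 Random 60-nt DNA library encoding peptides of up to 20 aa, fused to the C-terminus of yeast HSF1 residues 1-493 (C-terminal TAD deleted) and expressed from the native HSF1 promoter on a CEN plasmid in hsf1-deleted S. cerevisiae PS128. Cells were selected at 37°C on -trp 5-FOA plates for 0, 2, 4, 6 and 8 days and amplicons were sequenced. Growth estimate is the slope of a robust linear fit of total-sum-normalised read counts (normalised to the first time point) over time, using at least 2 replicates. Sequences are classed functional (TAD activity) above a threshold of -0.13, set from stop-codon control sequences.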
As to GHGNIRR, the growth estimate is less than -0.25. For QGRWFENLMG the value was less than -0.25; for VGVRVILVEICPRANRTVT, less than -0.25; for GLQSTRYSLFSRCNALSRSA, less than -0.25. For VWAPIYVYARIFLMVDHADG the value was less than -0.25; for HNRNFKRSS, less than -0.25. Next, HQRRWELLGEK: less than -0.25; RVFCEECRQHRAHPRQNFID: less than -0.25.

For HAYLPQA, the growth estimate is less than -0.25.

For VVDRVAGKAVGFCST, the growth estimate is less than -0.25. Next, PILG: less than -0.25; DGTLVAVTPIN: less than -0.25; GGGAVQF: less than -0.25. As to RSALSHRTLGQYMEPSDDS, the growth estimate is less than -0.25.

In the case of PYIRFRGSGGL, the growth estimate is less than -0.25. Next, LDVIPTRFET: less than -0.25. Next, SLVRHKTAPRRLHGTGSFGL: less than -0.25; PTVMTSARTGSVRIGSGIRT: less than -0.25. For LLCSLFTPHVRYV the value was -0.216; for RVMLTAGTRTG, less than -0.25.

Turning to ESMTRHWGEICVLWARVSVI, the growth estimate was less than -0.25. Consider MYLFTTADYGRLLLLDYASL, for which the growth estimate is less than -0.25. With IPSYERRNLPPSSKFHLAVG, the growth estimate is less than -0.25. For TPPGDPRKPFNGSGRIT, the growth estimate was less than -0.25.

Consider RYLV, for which the growth estimate was less than -0.25. Next, FIEIWLGPHVFQFCQAALGA: less than -0.25; GLHQDGPVFARIGYRLLFPR: less than -0.25; TISVTEILRRRRVHDDLHAP: less than -0.25. For WVLRGVHSRFSPIH the value was less than -0.25; for NSGKTMQVCFYDCL, less than -0.25; for LDPFETPDFILQCVFGLLTV, less than -0.25.

On to DVASRATVLCIGRFC, for which the growth estimate is less than -0.25. For ASAPMPQSLLPSRADHQDPA the value was less than -0.25; for TCLGSLALRGKLHAWGRPVR, less than -0.25; for QCNKRYCGVEWMFAKSSAI, less than -0.25. Next, FGRDPCLTGVGIGSVAEGRP: less than -0.25. For PYDKFLLDFCHG the value was less than -0.25; for IYLFTIRGSTVLELQQTGRF, less than -0.25. As to GVSWDVQHSCE, the growth estimate was less than -0.25.

Regarding DLTWAPICGPHEHGHACASS, the growth estimate is less than -0.25. For the substance DVSLR, the growth estimate is less than -0.25. With QPQNVSGSIEPRSTGLSIFH, the growth estimate was less than -0.25. Take RDCGDRHMKPNGRVDGCCQA: the growth estimate was less than -0.25. In the case of VSFEEGILIEGKQLCPQRGW, the growth estimate was less than -0.25. For VWGGGYSSHAIPSANTSLIT the value was less than -0.25.

For the substance VANHWAYHLGWYWCGGSGAS, the growth estimate is less than -0.25.

Take EVKVVSRSR: the growth estimate is less than -0.25. Next, VKVFTEWAYASGAQISGTAR: less than -0.25; TSSACSHGLYAIGIHEDWVY: less than -0.25; QYRVSTGTQQLSAF: less than -0.25.

As for DRDSELNRHGVTIVFPRIAG, the growth estimate was less than -0.25. For TFKNPMANRTKGLLVRCTG the value was less than -0.25; for VGPSSALVILGRGCG, less than -0.25; for EFSQRLVKLRVIGY, less than -0.25. For YQVGCQKYVTYLWVGSTSGG the value was less than -0.25; for NVFCF, less than -0.25. Next, TLITQSYASKFGQSELFIDC: less than -0.25; VPSAADRCR: less than -0.25; SFGFVR: less than -0.25.

With WYGPSAT, the growth estimate was less than -0.25. For HPR the value was less than -0.25. Consider NSGGSRPPTDEASARGNI, for which the growth estimate was less than -0.25.

Consider SPQQSGSKKQAAHDKGAVPT, for which the growth estimate was less than -0.25. For EKKGLISAMLREADAVATSP the value was less than -0.25. Next, GVWRSRHWWRVLRMDSMGIV: less than -0.25. As for RSLKHALG, the growth estimate is less than -0.25. For GPPSLVVAVTSGYPARPS the value was less than -0.25. Next, PPSLKASRN: less than -0.25; DKKLCLADRAAVTLIRSRRS: less than -0.25. As to SSSVVFELVDVID, the growth estimate is less than -0.25. For ARGIES the value was less than -0.25; for GSS, less than -0.25; for LTRVLTLQNGLSLRM, less than -0.25. As to TWSWTPVAT, the growth estimate was less than -0.25. As to STSPQGGLRPQYNGHQH, the growth estimate was less than -0.25.
